# Values quoted from earlier work, collected in patent publication US10188693B2, “Methods for treatment of atherosclerosis” (Stealth BioTherapeutics Corp, priority 2012, dated 2019).
# At least one structure is not confirmed: it was looked up by name or label, or the drawing left a doubt.
# Tested on: hepatitis C virus (HCV)
# Conditions: in vitro model of HCV infection (alone and with interferon); cited from earlier work
row,Compound,"anti-HCV effect, in words"
1,CC(C)n1c(/C=C/C(O)CC(O)CC(=O)O)c(-c2ccc(F)cc2)c2ccccc21 (centres unmarked) [fluvastatin],anti-HCV effect
2,CCC(C)(C)C(=O)O[C@H]1C[C@@H](C)C=C2C=C[C@H](C)[C@H](CC[C@@H]3C[C@@H](O)CC(=O)O3)[C@H]21 [simvastatin],anti-HCV effect
